This note sets out measurements from patent US20100093028A1 (DANISCO US, published 2010).

Protein sequences, listed by entry. Tags and fused reporters are not part of them. Lines headed by an entry give the natural chain unless they say otherwise; changes in a name come on top. Chains listed by the source or under a name are the forms on record and can include a tag or linker. Residues count along the entry.
vascular endothelial growth factor (P15692-4, form named): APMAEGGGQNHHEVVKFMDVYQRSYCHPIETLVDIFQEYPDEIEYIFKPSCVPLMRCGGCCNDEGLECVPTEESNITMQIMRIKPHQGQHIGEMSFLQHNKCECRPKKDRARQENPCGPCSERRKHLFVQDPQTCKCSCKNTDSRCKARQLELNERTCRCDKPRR
UniProt P01375, residues 77-233: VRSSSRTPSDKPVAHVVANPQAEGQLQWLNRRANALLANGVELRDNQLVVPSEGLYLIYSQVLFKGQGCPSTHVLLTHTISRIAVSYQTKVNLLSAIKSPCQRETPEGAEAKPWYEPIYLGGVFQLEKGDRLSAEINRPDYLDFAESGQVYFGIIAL
UniProt P01137, residues 279-390: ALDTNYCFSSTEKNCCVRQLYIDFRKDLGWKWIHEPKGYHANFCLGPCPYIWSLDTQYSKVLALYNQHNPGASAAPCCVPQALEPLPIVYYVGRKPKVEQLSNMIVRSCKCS

Assay [1] concerns the target T1, vascular endothelial growth factor (UniProt P15692-4 27-191, limits assumed, biotin label (Example 5), site not stated).
T1 construct: also called VEGF; VegF
The experiment in a line: sentence summing up the BioVeris competition data; no row for this molecule in Table 7.

The target in assay [2] is T1, vascular endothelial growth factor. Description: BioVeris ECL competition, labeled Anti-VegF antibody as competitor.
For assay [3] the target is unchanged. The experiment in a line: sentence summing up the BioVeris competition data.
Assay [4] has the same target. The experiment in a line: sentence summing up the BioVeris competition data of Table 7.
A further assay has as its target T2, Tumor necrosis factor α (UniProt P01375 77-233).
T2 construct: also called TNFα; TNF
The description is as above.

Assay [5] addresses T1, vascular endothelial growth factor. Description: BioVeris ECL competition, monoclonal antibody as competitor.
The target is the same in assay [6]. The experiment in a line: ECL (BioVeris) competition, labeled monoclonal antibody against VEGF as competitor; this molecule is the weaker binder.
Assay [7] concerns the target T3, Transforming growth factor β1 (UniProt P01137 279-390).
T3 construct: also called TGFβ1; TGFβ
The experiment in a line: sentence summing up the BioVeris competition data of Table 7.

Assay [8] addresses T4, fibroblast growth factor 5 (UniProt P12034 21-268, limits assumed).
T4 construct: also called FGF-5; FGF5
T4 sequence (looked up): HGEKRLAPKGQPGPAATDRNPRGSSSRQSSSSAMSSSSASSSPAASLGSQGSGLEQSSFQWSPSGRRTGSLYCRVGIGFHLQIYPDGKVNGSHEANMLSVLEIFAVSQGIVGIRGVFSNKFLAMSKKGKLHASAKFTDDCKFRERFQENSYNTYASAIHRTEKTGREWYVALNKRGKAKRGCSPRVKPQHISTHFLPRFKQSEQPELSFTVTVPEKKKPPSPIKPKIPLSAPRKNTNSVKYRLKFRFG
The assay is described as above.

Assay [9] addresses T1, vascular endothelial growth factor. Description: ECL (BioVeris) competition, labeled monoclonal antibody against VEGF as competitor.

These are yes or no findings as the source states them, for the method shown. Some entries that bind do so weakly or less than the wild type. For part of these data: Sequences can lack the tags named with a protein.

B1: BBsb3-AV (designed binder)
chain: DPDDEYSKPCCDLCMCTRSMPPQCSCEDIRLNSCHSDCKSCACYNLYGWTCRCLDTNDFCYKPCKSRDD
On to B1, for which the binding entry in assay [1] is “binds”.

B2: 1BBIck81 (designed binder)
chain: DDESSKPCCDQCACYNLYGWTCRCSDMRLNSCHSACKSCICALSYPAQCFCVDITDFCYEPCKPSEDDKEN
On to B2, for which the binding entry in assay [2] is listed as “binds”.

B3: BBdb-AV (designed binder)
chain: DPSESSKPCCDQCACTKSIPPQCRCTDVRLNSCHSACSSCACYNLYGWTCVCVDMKDFCYEPCK
notes: also called BBIdb-AV
Regarding B3, in [3], the binding entry is listed as “binds”.

B4: BBIt-VEGKD-A13I-S25K-L29P-V52K (designed binder)
chain: DPDDESSKPCCDQCICTKSNPPQCRCKDMRPNSCHSACKSCICKYDLYWWCFCKDITDFCYEPCKPSE
notes: also called VegKD-Q
For the molecule B4, in assay [4], the binding entry is listed as “binds”.

B5: CK37281 peptide (peptide)
peptide: ACYNLYGWTC
On to B5, for which, in [2], the binding entry is recorded as “binds”.

B6: BBIt-TNFα-T1-A13I-S25R-M27A-L29P-S31A-F50K-V52T (designed binder)
chain: DPDDESSKPCCDQCICTKSNPPQCRCRDARPNACHSACKSCACRYWQDIPCKCTDITDFCYEPCKPSE
notes: also called BBIt-TNF-T1
Take B6: the binding entry with Tumor necrosis factor α is “binds”.

B7: BBIt-VEGF-V5-A13I-S25R-M27A-L29P-S31A-F50K-V52T (designed binder)
chain: DPDDESSKPCCDQCICTKSNPPQCRCRDARPNACHSACKSCACKPSSASSCKCTDITDFCYEPCKPSE
notes: also called BBIt-AV-V5
For B7, the binding entry in [4] is given as “binds”.

B8: BBIt-TNFα-T2-A13I-S25R-M27A-L29P-S31A-F50K-V52T (designed binder)
chain: DPDDESSKPCCDQCICTKSNPPQCRCRDARPNACHSACKSCACAPEPILACKCTDITDFCYEPCKPSE
notes: also called BBIt-TNF-T2
In the case of B8, in the assay with Tumor necrosis factor α, the binding result is “binds”.

B9: BBIt-VEGF-V6-A13I-S25R-M27A-L29P-S31A-F50K-V52T (designed binder)
chain: DPDDESSKPCCDQCICTKSNPPQCRCRDARPNACHSACKSCACPVTKRVHCKCTDITDFCYEPCKPSE
notes: also called BBIt-AV-V6
On to B9, for which the binding entry in assay [4] is recorded as “binds”.

B10: BBIt-VEGF-V2-A13I-S25R-M27A-L29P-S31A-F50K-V52T (designed binder)
chain: DPDDESSKPCCDQCICTKSNPPQCRCRDARPNACHSACKSCACKTNPSGSCKCTDITDFCYEPCKPSE
notes: also called BBIt-AV-V2
Consider B10, for which, in assay [4], the binding entry was “binds”.

B11: BBIt-VEGF-V4-A13I-S25R-M27A-L29P-S31A-F50K-V52T (designed binder)
chain: DPDDESSKPCCDQCICTKSNPPQCRCRDARPNACHSACKSCACKHSAKAECKCTDITDFCYEPCKPSE
notes: also called BBIt-AV-V4
With B11, the binding result in assay [4] was “binds”.

B12: BBIt-VEGF-V1-A13I-S25R-M27A-L29P-S31A-F50K-V52T (designed binder)
chain: DPDDESSKPCCDQCICTKSNPPQCRCRDARPNACHSACKSCACSKHSQITCKCTDITDFCYEPCKPSE
notes: also called BBIt-AV-V1
Consider B12, for which the binding result in [4] is “binds”.

B13: BBIt-VEGF-V3-A13I-S25R-M27A-L29P-S31A-F50K-V52T (designed binder)
chain: DPDDESSKPCCDQCICTKSNPPQCRCRDARPNACHSACKSCACRPTGHSLCKCTDITDFCYEPCKPSE
notes: also called BBIt-AV-V3
In the case of B13, in assay [4], the binding result is “binds”.

B14: 2BBIck81 (designed binder)
chain: DDESSKPCCDQCACTKSNPPQCRCSDMRLNSCHSACKSCACYNLYGWTCFCVDITDFCYEPCKPSEDDKEN
B14: the binding result in assay [5], in assay [2] and in assay [6] was “binds” in each case.

B15: BBIt-AV-A13I-L29P-A40K-F50T-V52A (designed binder)
chain: DPDDESSKPCCDQCICTKSNPPQCRCSDMRPNSCHSACKSCKCYNLYGWTCTCADITDFCYEPCKPSE
notes: also called TA5; quintuple variant
Consider B15, for which the binding entry in assay [4] is “binds”.

B16: MM021W-Q-BBIt-TGFβ1 (designed binder)
chain: DPDDESSKPCCDQCICTKSNPPQCRCSDMRPNSCHSACKSCACKHNVDWLCTCADITDFCYEPCKPSE
notes: also called MM0212-Q-BBIt-TGF; BBIt-MM021W-Q-A13I-L29P-F50T-V52A
Turning to B16, the binding result in assay [7] was “binds”.

B17: MM007-Q-BBIt-FGF-5 (designed binder)
chain: DPDDESSKPCCDQCICTKSNPPQCRCSDMRPNSCHSACKSCACRTQPYPLCTCADITDFCYEPCKPSE
notes: also called BBIt-MM007-Q-A13I-L29P-F50T-V52A
Turning to B17, the binding result in [8] was “binds”.

B18: FGFps2-Q-BBIt-FGF-5 (designed binder)
chain: DPDDESSKPCCDQCICTKSNPPQCRCSDMRPNSCHSACKSCACTWIDSTPCTCADITDFCYEPCKPSE
notes: also called BBIt-FGFps2-Q-A13I-L29P-F50T-V52A
Take B18: the binding result in assay [8] is “binds”.

B19: BBIt-AV-A13I-S25K-M27A-L29R-S31A-A40H-F50R-V52L (designed binder)
chain: DPDDESSKPCCDQCICTKSNPPQCRCKDARRNACHSACKSCHCYNLYGWTCRCLDITDFCYEPCKPSE
notes: the entry carries an N-terminal DP; also called RL8
In the case of B19, the binding entry in assay [4] was “binds”.

B20: BBIt-AV-A13I-S25K-M27A-L29R-S31E-A40K-F50Q-V52Q (designed binder)
chain: DPDDESSKPCCDQCICTKSNPPQCRCKDARRNECHSACKSCKCYNLYGWTCQCQDITDFCYEPCKPSE
notes: the entry carries an N-terminal DP; also called QQ8
With B20, in assay [4], the binding entry is “binds”.

B21: BBIt-AV-A13I-S25R-M27A-L29P-S31A-A40H-F50K-V52T (designed binder)
chain: DPDDESSKPCCDQCICTKSNPPQCRCRDARPNACHSACKSCHCYNLYGWTCKCTDITDFCYEPCKPSE
notes: the entry carries an N-terminal DP; also called KT8
As to B21, in [4], the binding entry is reported as “binds”.

B22: BBIt-AV-A13I-A40K-F50T-V52A (designed binder)
chain: DPDDESSKPCCDQCICTKSNPPQCRCSDMRLNSCHSACKSCKCYNLYGWTCTCADITDFCYEPCKPSE
notes: the entry as printed carries an N-terminal DP from the linker
On to B22, for which the binding entry in assay [4] is recorded as “binds”.

B23: BBtc-AV (designed binder)
chain: DPSSKWEACCDRCACTKSIPPQCHCADIRLNSCHSACESCACYNLYGWTCRCFDITDFCYKPCSG
notes: also called BBItc-AV
Regarding B23, in [3], the binding result is listed as “binds”.

B24: PEN3-Q-BBIt-TGFβ1 (designed binder)
chain: DPDDESSKPCCDQCICTKSNPPQCRCSDMRPNSCHSACKSCACPENINVLPCTCADITDFCYEPCKPSE
notes: also called BBIt-PEN3-Q-A13I-L29P-F50T-V52A
B24: the binding entry in assay [7] is recorded as “binds”.

B25: BBIt-AV (designed binder)
chain: DDESSKPCCDQCACTKSNPPQCRCSDMRLNSCHSACKSCACYNLYGWTCFCVDITDFCYEPCKPSE
notes: BBI-AV without its 5 C-terminal amino acids; also called truncated BBI-AV; unmodified BBIt-AV
For the molecule B25, in [9], the binding entry is “binds”.
